Laboratory results: PMC3534080
No constants are given. Whether binding was seen depends on the method and setting. Binding seen in cells or lysates may run through a third protein. Some binding calls cover weakened binding; strength is not graded here.

Assays:
Assay in all cases: co-IP; HEK293 cells transiently overexpressing pairs of CDCP1 variants; lysis in 1% Triton X-100 buffer; immunoprecipitation with the antibody Cub1 (does not bind amino-terminally truncated CDCP1); blot with antibodies against the intracellular or the intra- and extracellular domain
[1] = biological target: Cub domain containing protein 1 (CDCP1), wild type, full length (UniProt Q9H5V8)
[2] = biological target: CDCP1 (1–701) (UniProt Q9H5V8)
[3] = biological target: CDCP1 (1–708) (UniProt Q9H5V8)
[4] = biological target: CDCP1 (C689,690G) (UniProt Q9H5V8)
[5] = biological target: CDCP1 (1–690, then Val-Lys-Arg-Stop) (UniProt Q9H5V8)
[6] = biological target: CDCP1 (ΔK693–697) (UniProt Q9H5V8)

Measured: binding

CDCP1 ΔNT370 (from UniProt Q9H5V8 370-836) (domain or fragment)
binds: [1]

B1: CDCP1 ΔNT660 (domain or fragment, UniProt Q9H5V8 660-836)
chain: TPRTVDLTVILIAAVGGGVLLLSALGLIICCVKKKKKKTNKGPAVGIYNDNINTEMPRQPKKFQKGRKDNDSHVYAVIEDTMVYGHLLQDSSGSFLQPEVDTYRPFQGTMGVCPPSPPTICSRAPTAKLATEEPPPRSPPESESEPYTFSHPNNGDVSSKDTDIPLLNTQEPMEPAE
binds: [2] | [3] | [4] | [5] | [1] | [6]
